Assay results as given in the M2OR odorant receptor database.
Only a part is listed here, and it is no random draw. Calls are pooled over several reports, among them a noisy single-well screen. This is one part of the list.

Legend:
Settings in all cases: stereoisomer not certain
[1] = target: T1, OR5M11 (Homo sapiens) (UniProt Q96RB7)
T1 sequence (whole entry): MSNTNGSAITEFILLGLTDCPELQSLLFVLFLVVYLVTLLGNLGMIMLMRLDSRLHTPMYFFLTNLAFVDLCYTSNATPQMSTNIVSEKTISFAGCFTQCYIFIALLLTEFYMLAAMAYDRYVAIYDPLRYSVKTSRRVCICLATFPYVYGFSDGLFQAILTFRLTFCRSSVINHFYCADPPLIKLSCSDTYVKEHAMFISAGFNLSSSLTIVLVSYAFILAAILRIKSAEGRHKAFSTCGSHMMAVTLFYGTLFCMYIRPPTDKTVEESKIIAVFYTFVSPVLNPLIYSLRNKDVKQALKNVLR
Summary of the method: (§1)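 Assay methods differ from source to source, frequently being transient luciferase assays in mammalian cell lines. For each receptor–molecule pair, the label responsive (active) applies when the original authors judged the measured signal statistically different from baseline, and non-responsive (inactive) applies otherwise.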

[2] = system: T2, OR5M1
T2 sequence (whole entry): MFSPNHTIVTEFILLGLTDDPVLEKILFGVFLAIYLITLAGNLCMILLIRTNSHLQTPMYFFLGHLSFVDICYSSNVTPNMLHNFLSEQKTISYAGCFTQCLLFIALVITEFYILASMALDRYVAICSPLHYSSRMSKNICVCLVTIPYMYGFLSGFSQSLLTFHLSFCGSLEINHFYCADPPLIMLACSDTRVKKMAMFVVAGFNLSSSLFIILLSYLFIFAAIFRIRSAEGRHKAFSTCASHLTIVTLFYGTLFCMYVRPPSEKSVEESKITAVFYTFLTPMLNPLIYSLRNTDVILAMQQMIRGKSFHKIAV
Summary of the method: as §1

[3] = target: T3, OR5M8 (Homo sapiens) (UniProt Q8NGP6)
T3 sequence (whole entry): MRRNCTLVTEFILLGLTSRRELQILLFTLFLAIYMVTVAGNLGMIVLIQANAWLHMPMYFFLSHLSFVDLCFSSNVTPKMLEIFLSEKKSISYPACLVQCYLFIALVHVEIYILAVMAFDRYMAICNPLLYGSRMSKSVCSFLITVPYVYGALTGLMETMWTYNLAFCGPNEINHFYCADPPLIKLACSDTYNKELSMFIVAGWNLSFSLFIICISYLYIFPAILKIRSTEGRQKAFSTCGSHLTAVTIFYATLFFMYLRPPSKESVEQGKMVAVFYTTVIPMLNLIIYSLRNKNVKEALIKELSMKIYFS
Summary of the method: as §1

[4] = target: T4, OR5M9 (Homo sapiens) (UniProt Q8NGP3)
T4 sequence (whole entry): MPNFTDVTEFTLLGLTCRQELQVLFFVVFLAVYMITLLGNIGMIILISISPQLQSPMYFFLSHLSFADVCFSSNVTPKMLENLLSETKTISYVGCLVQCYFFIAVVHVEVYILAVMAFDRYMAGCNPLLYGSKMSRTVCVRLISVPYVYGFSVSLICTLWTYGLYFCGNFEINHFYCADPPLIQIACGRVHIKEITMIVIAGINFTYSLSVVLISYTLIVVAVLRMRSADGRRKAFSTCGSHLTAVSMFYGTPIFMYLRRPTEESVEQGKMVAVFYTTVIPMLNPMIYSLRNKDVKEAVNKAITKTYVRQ
Summary of the method: as §1

[5] = system: T5, OR5MA
T5 sequence (whole entry): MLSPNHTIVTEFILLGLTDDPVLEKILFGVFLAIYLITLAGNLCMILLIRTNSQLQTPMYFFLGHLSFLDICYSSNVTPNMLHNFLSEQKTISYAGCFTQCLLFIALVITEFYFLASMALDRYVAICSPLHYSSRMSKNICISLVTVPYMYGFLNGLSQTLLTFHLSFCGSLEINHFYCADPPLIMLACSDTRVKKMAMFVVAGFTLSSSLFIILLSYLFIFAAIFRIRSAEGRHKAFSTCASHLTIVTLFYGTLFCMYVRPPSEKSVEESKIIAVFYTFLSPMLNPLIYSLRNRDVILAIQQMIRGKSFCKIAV
Summary of the method: as §1

[6] = target: T6, OR5P2 (Homo sapiens) (UniProt Q8WZ92)
T6 sequence (whole entry): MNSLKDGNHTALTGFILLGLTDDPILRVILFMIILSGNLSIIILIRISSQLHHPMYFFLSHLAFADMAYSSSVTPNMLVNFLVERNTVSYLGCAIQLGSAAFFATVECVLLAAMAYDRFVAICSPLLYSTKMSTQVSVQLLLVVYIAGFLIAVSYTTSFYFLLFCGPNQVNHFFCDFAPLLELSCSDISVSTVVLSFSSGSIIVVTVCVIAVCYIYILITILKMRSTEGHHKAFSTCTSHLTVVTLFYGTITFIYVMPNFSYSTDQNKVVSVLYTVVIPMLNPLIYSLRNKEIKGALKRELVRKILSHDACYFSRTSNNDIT
Summary of the method: as §1

[7] = target: T7, OR5P3 (Homo sapiens) (UniProt Q8WZ94)
T7 sequence (whole entry): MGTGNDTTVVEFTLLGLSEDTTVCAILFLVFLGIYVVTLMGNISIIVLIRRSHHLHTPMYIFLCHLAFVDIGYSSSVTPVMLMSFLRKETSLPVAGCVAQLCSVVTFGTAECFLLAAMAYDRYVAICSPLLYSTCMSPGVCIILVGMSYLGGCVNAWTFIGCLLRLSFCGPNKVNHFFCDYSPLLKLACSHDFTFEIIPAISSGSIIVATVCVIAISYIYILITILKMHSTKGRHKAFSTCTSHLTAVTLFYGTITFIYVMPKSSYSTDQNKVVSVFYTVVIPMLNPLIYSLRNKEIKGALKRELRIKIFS
Summary of the method: as §1

[8] = system: T8, OR5R1
T8 sequence (whole entry): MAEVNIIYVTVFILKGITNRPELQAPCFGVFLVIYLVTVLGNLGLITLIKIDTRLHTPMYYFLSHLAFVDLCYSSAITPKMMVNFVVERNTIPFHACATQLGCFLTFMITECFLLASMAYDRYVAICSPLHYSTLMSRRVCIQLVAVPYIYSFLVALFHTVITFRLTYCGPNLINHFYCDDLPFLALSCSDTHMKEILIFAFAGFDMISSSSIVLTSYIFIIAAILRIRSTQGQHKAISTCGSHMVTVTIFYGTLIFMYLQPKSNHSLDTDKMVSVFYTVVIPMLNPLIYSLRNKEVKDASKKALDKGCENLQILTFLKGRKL
Summary of the method: as §1

[9] = target: T9, OR5T1 (Homo sapiens) (UniProt Q8NG75)
T9 sequence (whole entry): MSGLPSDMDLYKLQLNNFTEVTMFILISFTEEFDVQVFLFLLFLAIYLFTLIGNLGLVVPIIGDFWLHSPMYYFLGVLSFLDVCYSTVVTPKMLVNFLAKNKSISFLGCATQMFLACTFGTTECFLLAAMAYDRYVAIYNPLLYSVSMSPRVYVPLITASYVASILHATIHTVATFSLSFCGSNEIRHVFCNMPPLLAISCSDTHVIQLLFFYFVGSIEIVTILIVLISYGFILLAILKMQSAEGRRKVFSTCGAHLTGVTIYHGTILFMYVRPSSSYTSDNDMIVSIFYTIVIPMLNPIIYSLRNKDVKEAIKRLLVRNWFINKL
Summary of the method: as §1

[10] = system: T10, OR5T1
T10 sequence (whole entry): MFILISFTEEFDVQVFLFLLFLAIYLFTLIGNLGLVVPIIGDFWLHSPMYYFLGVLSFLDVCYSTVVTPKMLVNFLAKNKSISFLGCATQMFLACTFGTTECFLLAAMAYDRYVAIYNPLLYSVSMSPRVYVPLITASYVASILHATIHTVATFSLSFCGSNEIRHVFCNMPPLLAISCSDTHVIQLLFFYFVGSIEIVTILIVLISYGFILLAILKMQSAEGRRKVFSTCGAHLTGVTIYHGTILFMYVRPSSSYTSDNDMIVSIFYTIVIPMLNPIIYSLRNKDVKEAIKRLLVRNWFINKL
Summary of the method: as §1

[11] = system: T11, OR5T2
T11 sequence (whole entry): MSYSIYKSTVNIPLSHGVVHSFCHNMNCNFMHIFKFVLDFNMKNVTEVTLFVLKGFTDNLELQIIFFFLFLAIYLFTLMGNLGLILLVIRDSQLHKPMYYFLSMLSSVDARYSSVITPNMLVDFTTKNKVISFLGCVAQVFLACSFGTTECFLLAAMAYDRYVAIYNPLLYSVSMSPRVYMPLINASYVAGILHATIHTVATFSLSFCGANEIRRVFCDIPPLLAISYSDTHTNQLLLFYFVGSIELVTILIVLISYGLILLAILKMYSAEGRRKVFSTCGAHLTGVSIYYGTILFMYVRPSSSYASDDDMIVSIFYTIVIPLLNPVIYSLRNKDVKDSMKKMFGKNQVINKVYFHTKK
Summary of the method: as §1

[12] = system: T12, OR5T2; remark: listed apart in the source
T12 sequence (whole entry): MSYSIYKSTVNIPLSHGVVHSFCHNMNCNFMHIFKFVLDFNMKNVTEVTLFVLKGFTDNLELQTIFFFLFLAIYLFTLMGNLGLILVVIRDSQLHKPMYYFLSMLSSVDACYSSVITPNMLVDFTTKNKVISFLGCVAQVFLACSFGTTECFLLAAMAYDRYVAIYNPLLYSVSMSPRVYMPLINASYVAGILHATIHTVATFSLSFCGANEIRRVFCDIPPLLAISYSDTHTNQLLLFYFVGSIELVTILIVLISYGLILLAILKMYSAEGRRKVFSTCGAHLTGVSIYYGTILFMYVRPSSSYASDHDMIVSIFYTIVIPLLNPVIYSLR
Summary of the method: as §1

[13] = system: T13, OR5T3
T13 sequence (whole entry): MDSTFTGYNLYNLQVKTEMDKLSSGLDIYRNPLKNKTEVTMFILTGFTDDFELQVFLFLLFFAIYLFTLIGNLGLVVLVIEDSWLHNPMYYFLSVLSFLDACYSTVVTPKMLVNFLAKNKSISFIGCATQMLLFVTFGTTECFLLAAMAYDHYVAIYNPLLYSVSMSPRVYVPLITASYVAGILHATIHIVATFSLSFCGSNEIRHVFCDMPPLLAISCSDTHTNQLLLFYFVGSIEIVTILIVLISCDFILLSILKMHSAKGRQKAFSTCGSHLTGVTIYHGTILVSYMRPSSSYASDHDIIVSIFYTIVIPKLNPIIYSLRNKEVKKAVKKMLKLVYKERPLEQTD
Summary of the method: as §1

[14] = target: T14, OR5V1 (Homo sapiens) (UniProt Q9UGF6)
T14 sequence (whole entry): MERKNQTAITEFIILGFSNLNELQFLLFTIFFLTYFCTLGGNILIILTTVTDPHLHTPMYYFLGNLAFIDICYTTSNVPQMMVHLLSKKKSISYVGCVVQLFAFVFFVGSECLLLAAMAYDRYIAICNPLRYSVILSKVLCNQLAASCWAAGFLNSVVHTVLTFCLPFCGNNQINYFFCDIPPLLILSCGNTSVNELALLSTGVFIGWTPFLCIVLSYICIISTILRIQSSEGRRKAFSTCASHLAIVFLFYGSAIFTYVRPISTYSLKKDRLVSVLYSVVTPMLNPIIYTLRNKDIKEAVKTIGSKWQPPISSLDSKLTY
Summary of the method: as §1

[15] = system: T15, OR5W2
T15 sequence (whole entry): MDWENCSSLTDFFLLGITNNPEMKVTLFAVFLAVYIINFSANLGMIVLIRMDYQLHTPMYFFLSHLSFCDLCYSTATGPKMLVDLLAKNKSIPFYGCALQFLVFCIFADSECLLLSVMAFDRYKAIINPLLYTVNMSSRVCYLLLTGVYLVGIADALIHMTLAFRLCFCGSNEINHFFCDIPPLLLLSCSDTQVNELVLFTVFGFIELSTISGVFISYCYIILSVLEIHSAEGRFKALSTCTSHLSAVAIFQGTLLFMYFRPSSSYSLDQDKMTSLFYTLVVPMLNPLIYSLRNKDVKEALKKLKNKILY
Summary of the method: as §1

[16] = target: T16, OR6A2 (Homo sapiens) (UniProt O95222)
T16 sequence (whole entry): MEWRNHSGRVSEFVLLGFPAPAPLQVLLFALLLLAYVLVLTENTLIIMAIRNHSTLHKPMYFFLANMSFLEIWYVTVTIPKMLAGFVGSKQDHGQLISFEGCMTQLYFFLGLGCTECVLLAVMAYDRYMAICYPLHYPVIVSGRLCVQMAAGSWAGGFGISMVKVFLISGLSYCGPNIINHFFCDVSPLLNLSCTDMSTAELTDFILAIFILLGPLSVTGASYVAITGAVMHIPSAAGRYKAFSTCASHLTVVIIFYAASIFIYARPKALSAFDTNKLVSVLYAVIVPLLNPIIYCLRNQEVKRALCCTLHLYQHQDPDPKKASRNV
Summary of the method: as §1

Row | SMILES | odorant receptor agonist call [1] | odorant receptor agonist call [2] | odorant receptor agonist call [3] | odorant receptor agonist call [4] | odorant receptor agonist call [5] | odorant receptor agonist call [6] | odorant receptor agonist call [7] | odorant receptor agonist call [8] | odorant receptor agonist call [9] | odorant receptor agonist call [10] | odorant receptor agonist call [11] | odorant receptor agonist call [12] | odorant receptor agonist call [13] | odorant receptor agonist call [14] | odorant receptor agonist call [15] | odorant receptor agonist call [16]
1 | CC(C)=CCCC(C)=CC=O | inactive | inactive | inactive | inactive | inactive | inactive | inactive | inactive | inactive | inactive | inactive | inactive | inactive | inactive | inactive | inactive
2 | O=C1CCCCC1 |  | inactive | inactive | inactive |  | inactive | inactive | inactive | inactive | inactive | inactive | inactive | inactive | inactive | inactive | inactive
3 | CC(C)(O)CCCC1=CCC(C=O)CC1 (centres undefined) | inactive |  |  | inactive | inactive |  | inactive |  |  |  |  |  |  |  |  | 
4 | CCCCCC(C)=O |  | inactive | inactive | inactive |  | inactive | inactive | inactive | inactive | inactive | inactive | inactive | inactive | inactive | inactive | inactive
5 | CC12C=CCC1C1CCC3=CC(=O)CCC3(C)C1CC2 (centres undefined) | inactive | inactive | inactive | inactive | active | inactive | inactive | inactive | inactive | inactive | inactive | inactive | inactive | active | inactive | inactive
